# For some of these results: Construct, isoform or probe ends are uncertain for at least one entry. For some of these results: No signal at the amounts used counts as a negative.
# Experiments:
# [1] = biological target: HuR (ELAV, ELAVL1) (Homo sapiens) (UniProt Q15717); assay: EMSA; conditions: purified recombinant protein, protein details: N-terminal GST (pGEX-5X-1), E. coli BL21, label: 32P-UTP
# GST = GST (UniProt P08515); assay: EMSA; conditions: GST control; purified recombinant protein; protein details: GST alone from pGEX-5X-1 (Amersham-Pharmacia); label: 32P-UTP
# L5 = L5 (UniProt P46777); assay: EMSA; conditions: specificity control; purified recombinant protein; protein details: GST fusion; label: 32P-UTP
# hnRNP A1 M9 domain = hnRNP A1 M9 domain (UniProt P09651); assay: EMSA; conditions: specificity control; purified recombinant protein; protein details: GST fusion; label: 32P-UTP
# [2] = biological target: HuR (ELAV, ELAVL1) (Homo sapiens) (UniProt Q15717); assay: activity in cells; conditions: CAT reporter in COS cells with HuR co-transfection; protein in cells; protein details: expressed from pcDNA3-ELAV in COS cells; variant of CD83 coding RNA nt1-618
sequence,measurement,setting,value
AGCUGCAACUCGGGGACAUACAGGUGCACUCUGCAGGACCCGGAUGGGCAGAGAAACCUAAGUGGCAAGGUGAUCUUGAGAGUGACAGGAUGCCCUGCACAGCGUAAAGAAGAGACUUUUAAGAAAUACAGAGCGGAGAUUGUCCUGCUGCUGGCUCUGGUUAUUUUCUACUUAACACUCAUCAUUUUCACUUGUAAGUUUGCACGGCUACAGAGUAUCUUCCCAGAUUUUUCUAAAGCUGGCAUGGAACGAGCUUUUCUCCCAGUUACCUCCCCAAAUAAGCAUUUAGGGCUAGUGACUCCUCACAAGACAGAACUGGUAUGA [CD83 RNA nt295-618],binding result,"[1]; binding region stated as nt415-618, variant of CD83 coding RNA nt1-618",binds
AUGUCGCGCGGCCUCCAGCUUCUGCUCCUGAGCUGCGCCUACAGCCUGGCUCCCGCGACGCCGGAGGUGAAGGUGGCUUGCUCCGAAGAUGUGGACUUGCCCUGCACCGCCCCCUGGGAUCCGCAGGUUCCCUACACGGUCUCCUGGGUCAAGUUAUUGGAGGGUGGUGAAGAGAGGAUGGAGACACCCCAGGAAGACCACCUCAGGGGACAGCACUAUCAUCAGAAGGGGCAAAAUGGUUCUUUCGACGCCCCCAAUGAAAGGCCCUAUUCCCUGAAGAUCCGAAACACUACCAGCUGCAACUCGGGGACAUACAGGUGCACUCUGCAGGACCCGGAUGGGCAGAGAAACCUAAGUGGCAAGGUGAUCUUGAGAGUGACAGGAUGCCCUGCACAGCGUAAAGAAGAGACUUUUAAGAAAUACAGAGCGGAGAUUGUCCUGCUGCUGGCUCUGGUUAUUUUCUACUUAACACUCAUCAUUUUCACUUGUAAGUUUGCACGGCUACAGAGUAUCUUCCCAGAUUUUUCUAAAGCUGGCAUGGAACGAGCUUUUCUCCCAGUUACCUCCCCAAAUAAGCAUUUAGGGCUAGUGACUCCUCACAAGACAGAACUGGUAUGA [CD83 coding RNA nt1-618],binding result,GST,no binding
same,binding result,[1],binds
same,binding result,L5,no binding
same,binding result,hnRNP A1 M9 domain,no binding
UUAACACUCAUCAUUUUCACUUGUAAGUUUGCACGGCUACAGAGUAUCUUCCCAGAUUUUUCUAAAGCUGGCAUGGAACGAGCUUUUCUCCCAGUUACCUCCCCAAAUAAGCAUUUAGGGCUAGUGACUCCUCACAAGACAGAACUGGUA [CD83 RNA nt466-615 (stem-loop-2)],functional effect (fold increase),[2],2
UUUAAGAAAUACAGAGCGGAGAUUGUCCUGCUGCUGGCUCUGGUUAUUUUCUACUUAACACUCAUCAUUUUCACUUGUAAGUUUGCACGGCUACAGAGUAUCUUCCCAGAUUUUUCUAAAGCUGGCAUGGAACGAGCUUUUCUCCCAGUUACCUCCCCAAAUAAGCAUUUAGGGCUAGUGACUCCUCACAAGACAGAACUGGUA [CD83 nt412-615 in CAT reporter 3'UTR],functional effect (fold increase),[2],2

# Reference: patent US20020165186
